# Source: PubChem BioAssay AID504834 (National Center for Advancing Translational Sciences (NCATS), 2011)
# Out of some 320,000 compounds screened, about 22,000 (6.9%) were called active. The inconclusive results got no clear call from the source; some entries with a clear call stand among them for comparison. The call rests on the fitted dose curve; in most records, active means well fitted inhibition curve with a large enough effect; inconclusive means small, poorly fitted or top-dose-only effect, or another doubt; inactive means no such curve, though single readings can be large or run the other way. A potency beside an inconclusive call is a rough fit, not a confirmed value.
# Test: Primary qHTS for delayed death inhibitors of the malarial parasite plastid, 96 hour incubation
# Details: P. falciparum luciferase reporter growth; series mostly up to 28.7 µM
# Summary of the method: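 Two-generation exposure (96 h) targets delayed-death phenotype. Reporter parasites carrying integrated firefly luciferase, in red cells at 2% hematocrit and 0.05% parasitemia final, kept at 37 C, 5% CO2; luminescence loss indicates inhibition.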
# Potency means the concentration at half of the fitted maximal effect.
row,Compound,Potency
1,Cc1ccc(CNC(=O)[C@H](C)[C@H]2C[C@]2(C)[C@H](NC(=O)OCc2ccccc2)c2ccccc2)o1,"inconclusive: 11.7 µM [inhibitor, partial curve, poor fit]"
2,CN1CC[C@H](CN2c3ccccc3Sc3ccccc32)C1,active: 4.78 µM
3,CCOc1cc(C2CC(=O)N3CN(C4CCCCC4)CSC3=C2C#N)ccc1O (centres undefined),"inconclusive: 10.4 µM [inhibitor, single point]"
4,Cc1ncc([N+](=O)[O-])n1CC(=O)NCCc1ccccc1,"inconclusive: 8.28 µM [inhibitor, partial curve, poor fit]"
5,CCOC(=O)c1cc(-c2ccccc2)nn1CCC#N,"inconclusive: 11.7 µM [inhibitor, partial curve]"
6,COc1c(C)cc(Br)cc1C(=O)Nc1ccc(C)cc1[N+](=O)[O-],"inconclusive: 18.5 µM [inhibitor, single point]"
7,CCOc1ccc(/C=N/NC(=O)C(=O)N2CCCCCC2)c2ccccc12,"inconclusive: 18.5 µM [inhibitor, single point]"
8,CSCCC1NC2(C(=O)Nc3ccc(Cl)cc32)[C@@H]2C(=O)N(C3CCCC3)C(=O)[C@H]12 (some centres undefined),active: 11.7 µM
9,CCN1CC=C2C(C#N)=C(N)C(C#N)(C#N)C(CCc3ccccc3)C2C1 (centres undefined),active: 10.4 µM
10,CCCCN(C)CCCNC(=O)CS(=O)Cc1nc(-c2ccc(OC)c(OC)c2)oc1C (centres undefined),"inconclusive: 2.94 µM [inhibitor, partial curve, poor fit]"
11,CSc1nnc(NC(=O)c2ccc(C)c(S(=O)(=O)N3CCOCC3)c2)s1,inactive
12,Cn1c(=O)c2c(nc(Oc3ccc4c(c3)OCO4)n2Cc2ccc(F)cc2)n(C)c1=O,"inconclusive: 6.57 µM [inhibitor, partial curve, poor fit]"
13,CCOc1ccc(C(C)NC(=S)NCc2ccc(Cl)cc2)cc1 (centres undefined),active: 5.22 µM
14,COc1ccc(NC(=O)CSc2nc(C)cs2)c(OC)c1,"inconclusive: 1.85 µM [inhibitor, single point]"
15,CCOC(=O)c1c(C)[nH]c(C)c1C(=O)COC(=O)c1ccc(S(=O)(=O)N(CC)CC)cc1,"inconclusive: 20.8 µM [inhibitor, partial curve, poor fit]"
16,N#C/C(=C\c1cn(CCOc2ccccc2F)c2ccccc12)C(=O)NCc1cccs1,inactive
17,CCC(=O)N1CCN(c2ccc(NC(=S)NC(=O)C(C)C)cc2)CC1,"inconclusive: 11.7 µM [inhibitor, single point]"
18,C/C(=N\NC(=O)c1ccc2c(c1)OCO2)c1ccc(O)cc1,inactive
19,COCC1CCN(C(=O)C2CCN(c3nc(-c4ccccc4)nc4c3CCC4)CC2)C1 (centres undefined),"inconclusive: 18.5 µM [inhibitor, single point]"
20,Cc1nn(CC(=O)N2CCC(C)CC2)c(=O)c2nn(-c3ccccc3)c(C)c12,"inconclusive: 10.4 µM [inhibitor, single point]"
21,CCN(CC(=O)NCCN1CCOCC1)S(=O)(=O)c1ccc(F)cc1,inactive
22,COc1ccc(CN(C)c2ncnc3sccc23)c(OC)c1OC,"inconclusive: 6.57 µM [inhibitor, partial curve, poor fit]"

row,Compound,Potency
1,COc1ccc(-c2ccc(NS(=O)(=O)c3ccc([N+](=O)[O-])cc3)cc2)nn1,"inconclusive: 16.5 µM [inhibitor, single point]"
2,CCC1(CC)Cc2ccccc2C(C2=C(O)CC(C)(C)CC2=O)=N1,"inconclusive: 14.7 µM [inhibitor, partial curve, poor fit]"
3,O=C(NC(Cc1ccccc1)C(=O)O)/C(=C/c1cccc([N+](=O)[O-])c1)NC(=O)c1cccc(Br)c1 (centres undefined),"inconclusive: 0.586 µM [inhibitor, full curve, poor fit]"
4,CCC(C)(C)C1CCC2(CC1)NC(=O)N(CC(=O)NCCc1ccc(OC)c(OC)c1)C2=O (centres undefined),"inconclusive: 10.4 µM [inhibitor, single point]"
5,COc1cc(CNc2ccc3[nH]c(=O)[nH]c3c2)ccc1OCc1c(F)cccc1Cl,inactive
6,CC(=O)OCCOCn1cnn2c(=O)c(Br)c(C)nc12,inactive
7,Nc1nc(C2CCOCC2)cs1,inactive
8,CCC(C)c1ccc(NC(=O)C2CC2)cc1 (centres undefined),inactive
9,COc1ccc(S(=O)(=O)N(C(=O)c2ccco2)c2cc3sc(=O)oc3c3ccccc23)cc1,inactive
10,O=C(c1ccco1)N1CCCSC1=Nc1ccccc1,"inconclusive: 18.5 µM [inhibitor, single point]"
11,Cc1[nH]c2ccccc2c1NC(=O)CN1CCN(C(=O)c2ccco2)CC1,"inconclusive: 13.1 µM [inhibitor, partial curve, poor fit]"
12,COc1ccc(NC(=O)Nc2cccc(C)n2)c(OC)c1,"inconclusive: 9.28 µM [inhibitor, partial curve]"
13,CCN1CCN(C(=O)c2ccccc2N(Cc2ccccc2)S(=O)(=O)c2ccc(C)cc2)CC1,active: 14.7 µM
14,O=C(Nc1oc2ccccc2c(=O)c1-c1ccc(Cl)cc1)c1ccco1,inactive
15,COc1cc(CN2CCNC(=O)C2CC(=O)NCCC2=CCCCC2)cc(OC)c1 (centres undefined),"inconclusive: 1.04 µM [inhibitor, partial curve, poor fit]"
16,Cc1[nH]c(-c2ccco2)nc1C(=O)O,active: 6.57 µM
17,O=C(N/N=C/c1ccoc1)c1ccccc1,"inconclusive: 11.7 µM [inhibitor, single point]"
18,CC1CCC2(CC1)NC(=O)N(CC(=O)c1cn(CCC#N)c3ccccc13)C2=O (centres undefined),"inconclusive: 0.233 µM [inhibitor, partial curve, poor fit]"
19,CCCc1ccc(OCC(O)CN2CCN(CCO)CC2)cc1 (centres undefined),active: 10.4 µM
20,Cc1ccccc1NC(=O)c1ccc2nc(N3CCOCC3)sc2c1,"inconclusive: 18.5 µM [inhibitor, single point]"
21,CCOc1[nH]n(-c2ccccc2)c(=O)c1C=Nc1ccc(Cl)cc1,"inconclusive: 2.33 µM [inhibitor, partial curve, poor fit]"
22,COc1ccc(-n2nc(C(=O)NCC(=O)NCc3ccc(F)cc3)c3ccccc3c2=O)c(OC)c1,active: 10.4 µM

# Retrieved by compound from the list above:
row,Compound,Potency
2,CCC1(CC)Cc2ccccc2C(C2=C(O)CC(C)(C)CC2=O)=N1,"inconclusive: 14.7 µM [inhibitor, partial curve, poor fit]"
9,COc1ccc(S(=O)(=O)N(C(=O)c2ccco2)c2cc3sc(=O)oc3c3ccccc23)cc1,inactive
